The record followed here is article doi:10.1101/2021.06.01.446612.

Amino acid sequences for entries named in this document (tags omitted). A change or cut given only in a name is not applied to a line headed by its entry.
UniProt P48736, whole entry: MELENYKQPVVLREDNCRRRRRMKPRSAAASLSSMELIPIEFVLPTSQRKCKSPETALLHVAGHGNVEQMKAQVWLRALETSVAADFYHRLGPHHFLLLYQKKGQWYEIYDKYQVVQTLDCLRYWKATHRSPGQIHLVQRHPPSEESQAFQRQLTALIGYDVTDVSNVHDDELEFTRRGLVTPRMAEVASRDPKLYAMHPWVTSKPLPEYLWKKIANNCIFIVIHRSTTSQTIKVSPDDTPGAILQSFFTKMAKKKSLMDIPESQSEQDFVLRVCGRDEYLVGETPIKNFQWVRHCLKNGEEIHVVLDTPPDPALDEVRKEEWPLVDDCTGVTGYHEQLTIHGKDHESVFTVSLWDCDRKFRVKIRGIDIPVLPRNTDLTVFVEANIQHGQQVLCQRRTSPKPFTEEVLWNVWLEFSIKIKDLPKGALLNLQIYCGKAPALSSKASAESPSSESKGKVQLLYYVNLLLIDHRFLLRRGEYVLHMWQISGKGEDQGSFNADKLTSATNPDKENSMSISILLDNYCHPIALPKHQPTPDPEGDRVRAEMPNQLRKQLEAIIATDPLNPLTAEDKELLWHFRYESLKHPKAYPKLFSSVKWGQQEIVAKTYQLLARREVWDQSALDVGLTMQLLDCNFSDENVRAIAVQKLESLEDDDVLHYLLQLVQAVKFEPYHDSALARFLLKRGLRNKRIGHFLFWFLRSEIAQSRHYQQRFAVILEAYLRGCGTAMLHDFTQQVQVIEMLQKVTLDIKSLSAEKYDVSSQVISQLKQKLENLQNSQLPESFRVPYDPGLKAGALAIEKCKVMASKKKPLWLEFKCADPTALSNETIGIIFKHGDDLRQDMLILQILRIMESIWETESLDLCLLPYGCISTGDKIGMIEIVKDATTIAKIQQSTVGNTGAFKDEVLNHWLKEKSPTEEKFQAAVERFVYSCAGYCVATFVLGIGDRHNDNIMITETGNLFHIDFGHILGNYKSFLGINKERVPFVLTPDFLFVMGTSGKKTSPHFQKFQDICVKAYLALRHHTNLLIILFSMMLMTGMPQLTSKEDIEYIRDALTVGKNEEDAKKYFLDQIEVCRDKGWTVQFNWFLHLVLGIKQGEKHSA

Results are given in words; binding and its absence hold for the method and conditions named. Some binding calls cover weakened binding; strength is not graded here.

The target of test [1] is T1, p101 regulatory subunit of PI3Kγ, porcine (S. scrofa) (porcine (S. scrofa)) (UniProt O02696).
T1 sequence: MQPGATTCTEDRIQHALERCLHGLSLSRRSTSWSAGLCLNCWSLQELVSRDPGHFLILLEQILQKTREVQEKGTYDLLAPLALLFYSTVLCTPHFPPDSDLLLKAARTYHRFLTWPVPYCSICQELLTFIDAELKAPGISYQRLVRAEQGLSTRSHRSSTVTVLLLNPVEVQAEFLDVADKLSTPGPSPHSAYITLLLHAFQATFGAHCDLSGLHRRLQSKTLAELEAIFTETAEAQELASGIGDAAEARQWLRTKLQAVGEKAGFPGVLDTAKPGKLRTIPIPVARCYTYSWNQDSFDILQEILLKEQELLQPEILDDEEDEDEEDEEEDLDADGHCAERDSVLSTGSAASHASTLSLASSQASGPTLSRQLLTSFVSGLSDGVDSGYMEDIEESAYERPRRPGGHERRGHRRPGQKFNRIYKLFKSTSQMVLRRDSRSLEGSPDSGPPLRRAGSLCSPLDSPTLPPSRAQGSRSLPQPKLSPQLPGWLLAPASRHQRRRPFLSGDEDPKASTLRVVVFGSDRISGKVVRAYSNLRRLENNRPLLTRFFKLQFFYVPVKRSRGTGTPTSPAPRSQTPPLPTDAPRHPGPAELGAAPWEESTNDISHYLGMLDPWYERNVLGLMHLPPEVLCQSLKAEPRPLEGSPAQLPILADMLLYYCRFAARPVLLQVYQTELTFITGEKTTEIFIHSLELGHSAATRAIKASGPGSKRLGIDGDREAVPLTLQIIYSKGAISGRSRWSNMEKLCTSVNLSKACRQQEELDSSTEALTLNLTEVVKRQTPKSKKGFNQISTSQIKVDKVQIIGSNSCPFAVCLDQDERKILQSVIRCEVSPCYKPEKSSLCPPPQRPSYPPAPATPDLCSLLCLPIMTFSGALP
The experiment in a line: SEC.

In test [2] the target is T1, p101 regulatory subunit of PI3Kγ, porcine (S. scrofa) (porcine (S. scrofa)). The experiment in a line: cryo-EM structure.
For test [3] the target is unchanged. The test is described as follows: HDX-MS.
Test [4] deals with T2, p84 regulatory subunit of PI3Kγ, mouse (mouse) (UniProt Q3U6Q4).
T2 sequence: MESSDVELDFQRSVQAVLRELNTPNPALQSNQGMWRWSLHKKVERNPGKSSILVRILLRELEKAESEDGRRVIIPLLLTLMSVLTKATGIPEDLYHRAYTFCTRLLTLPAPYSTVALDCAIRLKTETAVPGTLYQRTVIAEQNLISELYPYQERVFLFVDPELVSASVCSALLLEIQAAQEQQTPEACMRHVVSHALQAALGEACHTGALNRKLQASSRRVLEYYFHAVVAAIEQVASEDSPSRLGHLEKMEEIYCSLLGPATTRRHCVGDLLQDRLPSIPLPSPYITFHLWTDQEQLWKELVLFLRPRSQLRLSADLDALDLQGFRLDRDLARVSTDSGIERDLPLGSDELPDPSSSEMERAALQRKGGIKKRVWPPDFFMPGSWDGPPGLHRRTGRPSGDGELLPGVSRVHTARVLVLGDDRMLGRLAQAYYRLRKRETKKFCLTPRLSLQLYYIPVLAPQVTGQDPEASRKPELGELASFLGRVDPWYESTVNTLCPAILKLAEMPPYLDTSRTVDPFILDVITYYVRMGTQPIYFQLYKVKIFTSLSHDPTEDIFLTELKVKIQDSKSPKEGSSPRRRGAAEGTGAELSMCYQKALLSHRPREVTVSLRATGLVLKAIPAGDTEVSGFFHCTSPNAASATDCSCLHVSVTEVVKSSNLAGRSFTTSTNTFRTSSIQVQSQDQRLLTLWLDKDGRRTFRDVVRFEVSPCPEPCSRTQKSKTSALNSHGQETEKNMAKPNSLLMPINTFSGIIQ
The test is described as follows: HDX-MS.

Test [5] concerns the target T2, p84 regulatory subunit of PI3Kγ, mouse (mouse). The experiment in a line: SEC. On the technique in general: Size exclusion chromatography separates by hydrodynamic size, large species first.

As to “p110γ R472C (ABD interface mutant) (from UniProt P48736 1-1102) (enzyme)”, in test [1], the binding result was “binds”.

On to “p110γ E347K (p101 interface mutant) (from UniProt P48736 1-1102) (enzyme)”, for which, in test [1], the binding result was “binds”.

For the substance “p110γ catalytic subunit of PI3Kγ, full length human (from UniProt P48736 1-1102) (enzyme)”, the binding entry in test [2], in test [3], in test [4], in test [1] and in test [5] was “binds” each time.

As to “p110γ D369R (C2 domain, GBD-C2 interface mutant) (from UniProt P48736 1-1102) (enzyme)”, the binding result in test [1] is on record as “binds”.
